The list shows a part of the results. Hit calls seldom repeat between salt and free forms of one compound.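 In K562 cells expressing nanoluciferase-fused kinases, luminescence was recorded at 4 h intervals between 2 and 18 h, normalized as percent of control with DMSO at 100% and a positive control at 0%. A significant (2 sigma) signal drop marks a time point as decreased. The authors' rule for a hit is not shown and takes in more than the number of time points.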
How the values were obtained:
Experiment in all cases: number of time points (of 5) at which kinase-Nluc abundance scored as decreased, DMSO-normalised (count); higher = more persistent destabilization
Settings in all cases: K562; 2-18 h
[1] = target: PRKCA (UniProt P17252)
[2] = target: PTK2 (UniProt Q05397)
[3] = target: PTK2B (UniProt Q14289)
[4] = target: RAF1 (UniProt P04049)
[5] = target: RAF1_S257L (clone: RAF1_mut) (UniProt P04049)
[6] = target: RET (UniProt P07949)
[7] = target: RET_M918T (clone: RET_mut) (UniProt P07949)
[8] = target: RIOK1 (UniProt Q9BRS2)
[9] = target: RIPK1 (UniProt Q13546)
[10] = target: RIPK2 (UniProt O43353)
[11] = target: ROR2 (UniProt Q01974)
[12] = target: RPS6KA1 (UniProt Q15418)
[13] = target: SPHK1 (UniProt Q9NYA1)
[14] = target: SRC (UniProt P12931)
[15] = target: STK24 (UniProt Q9Y6E0)
[16] = target: STK38 (UniProt Q15208)
[17] = target: SYK (UniProt P43405)
[18] = target: TEC (UniProt P42680)
[19] = target: TYK2 (UniProt P29597)
[20] = target: ULK3 (UniProt Q6PHR2)

Amino acid sequences for entries named in this document (tags omitted). A change or cut given only in a name is not applied to a line headed by its entry.
UniProt Q14289, whole entry, looked up: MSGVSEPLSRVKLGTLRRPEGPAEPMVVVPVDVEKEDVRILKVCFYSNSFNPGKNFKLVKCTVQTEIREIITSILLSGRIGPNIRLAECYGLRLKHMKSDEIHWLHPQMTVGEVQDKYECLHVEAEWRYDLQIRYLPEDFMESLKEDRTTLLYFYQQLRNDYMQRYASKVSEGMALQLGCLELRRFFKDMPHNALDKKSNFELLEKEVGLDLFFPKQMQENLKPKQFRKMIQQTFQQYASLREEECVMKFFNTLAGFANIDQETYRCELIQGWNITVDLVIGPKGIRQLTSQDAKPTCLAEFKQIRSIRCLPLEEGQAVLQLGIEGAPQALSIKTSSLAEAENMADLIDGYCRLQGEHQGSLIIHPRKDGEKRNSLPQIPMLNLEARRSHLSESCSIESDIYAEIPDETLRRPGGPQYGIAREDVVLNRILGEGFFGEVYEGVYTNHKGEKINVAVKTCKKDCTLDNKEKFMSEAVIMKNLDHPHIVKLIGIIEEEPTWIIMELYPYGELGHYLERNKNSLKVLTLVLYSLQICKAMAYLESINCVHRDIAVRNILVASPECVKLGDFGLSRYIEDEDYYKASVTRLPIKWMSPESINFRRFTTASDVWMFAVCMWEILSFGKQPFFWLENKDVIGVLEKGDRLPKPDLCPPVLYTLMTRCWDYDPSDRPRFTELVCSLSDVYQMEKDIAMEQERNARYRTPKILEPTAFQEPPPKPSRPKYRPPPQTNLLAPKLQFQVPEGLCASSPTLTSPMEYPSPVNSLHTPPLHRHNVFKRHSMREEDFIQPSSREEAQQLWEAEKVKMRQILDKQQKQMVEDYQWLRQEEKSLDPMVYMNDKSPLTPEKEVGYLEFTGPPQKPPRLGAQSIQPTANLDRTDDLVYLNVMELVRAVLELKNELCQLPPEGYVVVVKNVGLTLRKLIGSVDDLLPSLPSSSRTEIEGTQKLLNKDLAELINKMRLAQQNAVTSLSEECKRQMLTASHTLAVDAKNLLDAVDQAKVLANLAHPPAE
UniProt P07949, whole entry, looked up: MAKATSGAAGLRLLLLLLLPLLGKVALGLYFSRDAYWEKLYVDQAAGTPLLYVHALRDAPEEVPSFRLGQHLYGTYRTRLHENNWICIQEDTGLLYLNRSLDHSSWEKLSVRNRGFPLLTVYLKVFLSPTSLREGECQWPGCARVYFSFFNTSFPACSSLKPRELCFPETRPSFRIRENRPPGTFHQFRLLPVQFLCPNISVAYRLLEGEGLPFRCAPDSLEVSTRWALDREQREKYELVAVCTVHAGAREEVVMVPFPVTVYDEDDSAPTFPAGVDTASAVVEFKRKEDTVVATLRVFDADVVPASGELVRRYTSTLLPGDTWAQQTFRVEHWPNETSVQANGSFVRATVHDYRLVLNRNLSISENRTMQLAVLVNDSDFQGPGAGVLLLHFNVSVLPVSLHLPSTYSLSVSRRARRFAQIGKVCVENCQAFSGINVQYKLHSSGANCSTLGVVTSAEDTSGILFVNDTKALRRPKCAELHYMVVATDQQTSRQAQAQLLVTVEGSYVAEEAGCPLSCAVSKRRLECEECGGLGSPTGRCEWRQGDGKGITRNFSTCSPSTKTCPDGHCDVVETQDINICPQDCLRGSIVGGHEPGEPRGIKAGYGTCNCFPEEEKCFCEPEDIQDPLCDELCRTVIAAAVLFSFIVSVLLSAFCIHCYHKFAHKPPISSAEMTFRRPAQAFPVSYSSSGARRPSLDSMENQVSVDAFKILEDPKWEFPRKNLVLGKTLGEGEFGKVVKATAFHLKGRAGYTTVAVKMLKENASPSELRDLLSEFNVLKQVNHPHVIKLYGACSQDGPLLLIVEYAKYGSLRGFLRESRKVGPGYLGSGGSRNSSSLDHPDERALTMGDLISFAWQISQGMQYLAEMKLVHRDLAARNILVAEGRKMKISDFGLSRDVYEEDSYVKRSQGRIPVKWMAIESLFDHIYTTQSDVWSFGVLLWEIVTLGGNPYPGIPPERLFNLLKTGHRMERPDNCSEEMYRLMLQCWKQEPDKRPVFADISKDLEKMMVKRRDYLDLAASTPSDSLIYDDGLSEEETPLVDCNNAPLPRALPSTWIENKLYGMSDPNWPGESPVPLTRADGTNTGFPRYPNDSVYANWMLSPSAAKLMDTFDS
UniProt P07949, whole entry M918T, looked up: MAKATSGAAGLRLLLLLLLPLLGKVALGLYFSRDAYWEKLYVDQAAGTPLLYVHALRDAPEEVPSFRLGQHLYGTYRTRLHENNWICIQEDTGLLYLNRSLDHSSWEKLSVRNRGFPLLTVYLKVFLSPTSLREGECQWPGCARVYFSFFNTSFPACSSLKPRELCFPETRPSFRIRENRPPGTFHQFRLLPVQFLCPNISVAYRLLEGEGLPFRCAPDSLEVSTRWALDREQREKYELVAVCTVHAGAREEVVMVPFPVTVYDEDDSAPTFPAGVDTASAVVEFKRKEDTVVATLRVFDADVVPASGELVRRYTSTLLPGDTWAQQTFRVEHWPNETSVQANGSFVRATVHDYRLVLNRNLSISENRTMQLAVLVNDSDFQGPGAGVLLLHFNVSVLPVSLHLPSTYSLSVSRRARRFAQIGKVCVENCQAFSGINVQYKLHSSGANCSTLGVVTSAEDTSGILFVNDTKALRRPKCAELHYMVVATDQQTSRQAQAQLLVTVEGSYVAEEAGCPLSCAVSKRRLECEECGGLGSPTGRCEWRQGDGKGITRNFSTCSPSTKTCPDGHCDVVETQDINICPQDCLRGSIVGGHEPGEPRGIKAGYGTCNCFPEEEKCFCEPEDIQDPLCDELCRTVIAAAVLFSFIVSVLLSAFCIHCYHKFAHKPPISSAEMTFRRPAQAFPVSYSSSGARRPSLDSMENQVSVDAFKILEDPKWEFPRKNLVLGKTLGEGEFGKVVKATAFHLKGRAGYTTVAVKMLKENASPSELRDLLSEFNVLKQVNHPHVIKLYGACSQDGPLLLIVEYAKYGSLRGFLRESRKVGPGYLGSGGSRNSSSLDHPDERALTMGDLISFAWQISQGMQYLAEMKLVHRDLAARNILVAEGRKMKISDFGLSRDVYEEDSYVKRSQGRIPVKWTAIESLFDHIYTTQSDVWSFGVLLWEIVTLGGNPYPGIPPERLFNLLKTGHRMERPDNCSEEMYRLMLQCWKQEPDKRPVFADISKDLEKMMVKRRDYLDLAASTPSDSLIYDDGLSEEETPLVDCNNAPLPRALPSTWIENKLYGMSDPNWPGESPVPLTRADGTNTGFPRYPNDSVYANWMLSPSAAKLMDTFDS
UniProt Q9BRS2: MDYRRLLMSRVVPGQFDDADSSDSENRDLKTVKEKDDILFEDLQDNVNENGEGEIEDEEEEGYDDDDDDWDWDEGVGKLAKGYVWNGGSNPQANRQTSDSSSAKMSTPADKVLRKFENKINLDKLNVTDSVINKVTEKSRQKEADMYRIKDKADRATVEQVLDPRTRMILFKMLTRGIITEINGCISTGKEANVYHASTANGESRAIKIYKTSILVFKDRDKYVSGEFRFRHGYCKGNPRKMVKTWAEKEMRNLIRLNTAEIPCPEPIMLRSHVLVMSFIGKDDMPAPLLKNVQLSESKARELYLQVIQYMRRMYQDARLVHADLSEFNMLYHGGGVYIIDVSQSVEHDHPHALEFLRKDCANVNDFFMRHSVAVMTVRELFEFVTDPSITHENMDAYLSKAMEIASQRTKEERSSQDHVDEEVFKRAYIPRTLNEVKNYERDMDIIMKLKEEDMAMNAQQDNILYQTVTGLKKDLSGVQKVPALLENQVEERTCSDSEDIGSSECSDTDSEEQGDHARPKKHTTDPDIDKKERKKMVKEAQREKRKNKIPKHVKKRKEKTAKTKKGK
UniProt Q13546: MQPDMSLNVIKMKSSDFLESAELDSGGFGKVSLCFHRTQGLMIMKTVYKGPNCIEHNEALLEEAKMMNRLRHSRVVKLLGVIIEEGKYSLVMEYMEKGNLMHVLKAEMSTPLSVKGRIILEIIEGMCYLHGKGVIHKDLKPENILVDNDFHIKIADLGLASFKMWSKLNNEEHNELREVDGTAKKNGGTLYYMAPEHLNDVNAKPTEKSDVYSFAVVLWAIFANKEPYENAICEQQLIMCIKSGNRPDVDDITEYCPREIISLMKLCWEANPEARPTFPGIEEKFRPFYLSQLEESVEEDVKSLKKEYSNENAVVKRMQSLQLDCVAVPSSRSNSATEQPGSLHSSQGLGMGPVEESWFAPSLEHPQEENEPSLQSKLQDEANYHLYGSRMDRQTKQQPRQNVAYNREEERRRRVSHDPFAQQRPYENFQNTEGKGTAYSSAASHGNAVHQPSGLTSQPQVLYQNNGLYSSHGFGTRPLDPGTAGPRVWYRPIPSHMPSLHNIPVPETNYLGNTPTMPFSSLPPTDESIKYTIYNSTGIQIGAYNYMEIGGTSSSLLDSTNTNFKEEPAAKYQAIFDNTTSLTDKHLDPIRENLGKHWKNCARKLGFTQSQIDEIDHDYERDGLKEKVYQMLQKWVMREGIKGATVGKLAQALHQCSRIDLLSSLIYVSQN
UniProt Q9NYA1, whole entry: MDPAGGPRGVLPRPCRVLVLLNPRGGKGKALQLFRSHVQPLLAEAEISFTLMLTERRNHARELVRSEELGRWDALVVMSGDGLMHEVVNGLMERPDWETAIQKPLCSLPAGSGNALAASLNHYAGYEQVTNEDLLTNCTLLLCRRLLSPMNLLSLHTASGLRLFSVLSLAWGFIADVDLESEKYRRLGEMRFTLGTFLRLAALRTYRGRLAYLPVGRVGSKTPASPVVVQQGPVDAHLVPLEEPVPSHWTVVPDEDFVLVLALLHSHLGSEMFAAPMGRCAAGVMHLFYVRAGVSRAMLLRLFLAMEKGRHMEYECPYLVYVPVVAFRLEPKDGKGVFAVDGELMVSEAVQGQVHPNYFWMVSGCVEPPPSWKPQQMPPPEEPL
UniProt P42680: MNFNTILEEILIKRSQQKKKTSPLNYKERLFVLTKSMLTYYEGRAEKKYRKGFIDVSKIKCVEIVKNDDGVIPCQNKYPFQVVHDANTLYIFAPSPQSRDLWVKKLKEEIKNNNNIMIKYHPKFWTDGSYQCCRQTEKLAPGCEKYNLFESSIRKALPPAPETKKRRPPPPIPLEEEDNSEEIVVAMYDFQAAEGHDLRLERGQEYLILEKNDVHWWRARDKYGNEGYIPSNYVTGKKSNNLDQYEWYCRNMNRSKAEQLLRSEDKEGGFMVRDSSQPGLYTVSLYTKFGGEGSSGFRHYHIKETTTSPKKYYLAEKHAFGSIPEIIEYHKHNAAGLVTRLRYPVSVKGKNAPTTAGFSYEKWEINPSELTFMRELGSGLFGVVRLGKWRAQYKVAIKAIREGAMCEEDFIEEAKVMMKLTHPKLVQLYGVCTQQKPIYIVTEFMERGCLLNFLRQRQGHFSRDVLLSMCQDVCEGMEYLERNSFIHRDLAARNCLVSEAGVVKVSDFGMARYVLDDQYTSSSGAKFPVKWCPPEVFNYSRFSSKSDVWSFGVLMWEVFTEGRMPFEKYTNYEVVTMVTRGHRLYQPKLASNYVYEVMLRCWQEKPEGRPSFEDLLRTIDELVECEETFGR

Measured: number of time points

COc1cc(F)cc([C@@H](CO)NC(=O)[C@@H](C)N2Cc3ccc(-c4nc(NC5CCOCC5)ncc4Cl)cc3C2=O)c1 [ERK1/2 inhibitor 2] (10 µM)
0: all assays above

O=c1c(-c2ccc(O)cc2)coc2cc(O)cc(O)c12 [Genistein] (10 µM)
not listed: [17]
0: all other assays above

CCc1nc(-c2cccc(C)c2)c(-c2ccnc(NC(=O)c3ccccc3)c2)s1 (10 µM)
not listed: [3]
0: all other assays above

Cc1cc(N2CCOCC2)cc2[nH]c(-c3c(NC[C@@H](O)c4cccc(Cl)c4)cc[nH]c3=O)nc12 (10 µM)
3: [4]
2: [8] | [10] | [18]
4: [19] | [20]
1: [16]
not listed: [2] | [6] | [7] | [17]
0: all other assays above

COc1cc2nc(C)nc(N[C@H](C)c3cc(N)cc(C(F)(F)F)c3)c2cc1O[C@H]1CCOC1 (10 µM)
1: [4]
0: all other assays above

O=C1c2ccccc2-c2n[nH]c3cccc1c23 (10 µM)
not listed: [17]
0: all other assays above

CNC(=O)c1ccccc1Nc1nc(Nc2ccc(N3CCOCC3)cc2OC)ncc1Cl (2.5 µM)
not listed: [6] | [7]
0: all other assays above

Cc1ccc2c(Nc3cccc(OC(F)(F)F)c3)nccc2c1Nc1ncccc1-c1ncnc2[nH]cnc12 (10 µM)
not listed: [4]
0: all other assays above

CC(=O)NCC(=O)N1[C@@H]2CC[C@H]1c1ccc(Nc3ncc(C(F)(F)F)c(NC4CCC4)n3)cc12 (2.5 µM)
2: [9]
4: [5] | [19]
1: [2] | [10] | [15]
5: [20]
3: [4] | [7] | [8]
not listed: [17]
0: all other assays above

CCN(CC)CCCCNc1ncc2cc(-c3cc(OC)cc(OC)c3)c(NC(=O)NC(C)(C)C)nc2n1 (10 µM)
0: all assays above

Cc1ccc(NC(=O)Nc2nnc(Sc3ncnc4cc(OCCCN5CCOCC5)ccc34)s2)cc1 (10 µM)
not listed: [6] | [7]
0: all other assays above

Cc1cc(F)c(C(=O)Nc2cccc(-c3nncn3C(C)C)n2)cc1-n1cnc(C2CC2)c1 [Selonsertib] (10 µM)
0: all assays above

CCN1C(=O)N(c2c(F)c(OC)cc(OC)c2F)Cc2cnc3[nH]c(CN4CCOCC4)cc3c21 [Pemigatinib] (10 µM)
0: all assays above

COc1cc(OC)c(F)c(COc2cnc(Nc3cnn(CCO)c3)nc2)c1F (2.5 µM)
2: [10]
1: [2] | [6] | [8]
3: [19]
0: all other assays above

COCCNCCc1cccc(Nc2ncc3c(n2)-c2ccccc2[C@H](c2ccccc2F)C3)c1 [Derazantinib] (2.5 µM)
1: [2] | [19]
0: all other assays above

COc1ccc2c(NC(=O)Nc3cccc(C(F)(F)F)n3)ccnc2c1 (10 µM)
not listed: [17]
0: all other assays above

NS(=O)(=O)c1ccc(Nc2nc(OCC3CCCCC3)c3[nH]cnc3n2)cc1 (10 µM)
0: all assays above

Nc1nc(N)c(N=O)c(OCC2CCCCC2)n1 (10 µM)
0: all assays above

Cc1cc(C)c(/C=C2\C(=O)Nc3ccccc32)[nH]1 [Semaxinib] (10 µM)
not listed: [3] | [6] | [7] | [17]
0: all other assays above

Cc1c(Cn2c(C)nc3c(C(=O)O)cc(N4CCOCC4)cc32)cccc1C(F)(F)F (10 µM)
not listed: [5] | [8] | [9] | [10]
0: all other assays above

Reference: the supplement of paper PMC12823440, “Inhibitors supercharge kinase turnover through native proteolytic circuits” (Nature, 2025)
